Screen size: about 300,000 compounds; about 5,400 (1.8%) were called active. Inconclusive means that the source gave no clear call. Such entries were picked first, then a sample of the others. Calls follow the shape of the full dose curve; tested in HEK293 cells. Potencies of inconclusive entries are doubtful fits and often do not repeat.
Assay: qHTS for inhibitors of binding or entry into cells for Marburg Virus
Settings: Marburg virus pseudotyped entry inhibition, cell reporter; activity change, negative = inhibition: at 37.8 µM (top of the series) unless noted
With CSc1snc(SCC(N)=O)c1C#N the Potency was inconclusive: 35.5 µM [activator, single point]. With CCc1ccccc1S(=O)(=O)Cc1ccc(C(=O)NCCc2ccc(C)cc2)o1 the Potency was inconclusive: 17.8 µM [inhibitor, single point]. In the case of COc1cccc(N2CCN(C3=NS(=O)(=O)C(c4ccc(C)cc4)=C3C)CC2)c1, the Potency is reported as inconclusive: 1.12 µM [inhibitor, full curve, poor fit]. In the case of COc1cc(OC)cc(C(=O)NCCSCc2ccc(Cl)cc2)c1, the Potency is reported as inconclusive: 14.1 µM [inhibitor, single point]. For Clc1ccccc1Cc1noc(CN2CCN(c3cnccn3)CC2)n1, the Potency was inconclusive: 11.2 µM [activator, single point]. In the case of CCc1ccc(-n2cc(-c3ccc(F)cc3)[n+]3c2SCCC3)cc1, the Potency is reported as inconclusive: 10 µM [inhibitor, partial curve, poor fit]. For COC(=O)c1ccc(CO/N=C/c2ccc(OC)cc2)o1, the Potency was “inactive”. For CCOC(=O)c1ccc(NC(=S)N(CCCN2CCN(CC)CC2)Cc2cccs2)cc1, the Potency was active: 10 µM. In the case of Cc1cccc(-c2nc(CSCC(=O)N3CCN(c4ccccn4)CC3)c(C)o2)c1, the Potency is reported as inconclusive: 20.6 µM [inhibitor, single point]. With COc1ccccc1CNC(=O)Cn1cccc1C(=O)c1ccccc1C the Potency was inconclusive: 6.31 µM [activator, single point]. In the case of Cc1cc(/C=C2/C(=N)N3C(c4ccccc4)=CSC3=NC2=O)c(C)n1-c1ccc(Cl)cc1, the Potency is reported as “inactive”. With Cc1ccc(-c2ccc(SCC(=O)Nc3nonc3C)nn2)cc1 the Potency was inconclusive: 4.61 µM [activator, full curve, poor fit]. With CC(=O)c1ccc(NC(=O)CSc2nnc(-c3ccco3)o2)cc1 the Potency was “inactive”. With Cc1ccc(C)c2c1[nH]c1ccc([N+](=O)[O-])cc12 the Potency was “inactive”. For Cc1cc(C(F)F)nn1CC(=O)NCc1ccco1, the Potency was inconclusive: 5.62 µM [activator, single point]. For O=C1CC(c2c[nH]c3ccccc23)C(=O)N1 (stereo unspecified), the Potency was inconclusive: 6.31 µM [activator, single point]. With CCCCCC(=O)N/N=C/c1ccco1 the Potency was “inactive”. For CCc1c(C)nc2c(-c3ccccc3OC)c(C)[nH]n2c1=O, the Potency was inconclusive: 12.6 µM [inhibitor, single point]. With COc1ccc(CC(=S)N2CCOCC2)cc1 the Potency was inconclusive: 7.94 µM [activator, partial curve, poor fit]. With CCOc1ccc(NC(=O)N(Cc2cn(CC)c3ccccc23)C2CCCCCC2)cc1 the activity change, negative = inhibition was inconclusive: 0.376% [activator] [at 46.1 µM]. With COC(=O)c1c(NC(=O)CS(=O)(=O)c2ccccc2)sc(C)c1C the Potency was “inactive”. With COc1cc(C(=O)NCCN2C(=O)S/C(=C\c3cccs3)C2=O)cc(OC)c1OC the Potency was “inactive”. In the case of Cc1ccc(C)c(OCC(=O)Nc2nc3ccc([N+](=O)[O-])cc3s2)c1, the Potency is reported as “inactive”. In the case of C=CCn1c(=N)n(CC(O)c2ccco2)c2ccccc21 (stereo unspecified), the Potency is reported as inconclusive: 35.5 µM [inhibitor, single point]. In the case of O=C(CSc1ccc(S(=O)(=O)N2CCCC2)cn1)Nc1ccc([N+](=O)[O-])cc1C(F)(F)F, the Potency is reported as inconclusive: 35.5 µM [inhibitor, single point]. For C[C@@H](C(=O)NCC1CC1)[C@H]1C[C@]1(C)[C@H](NC(=O)OCc1ccccc1)c1ccccc1, the Potency was “inactive”. With COCCNC(=S)N(CCc1c(C)[nH]c2ccc(C)cc12)Cc1cc(OC)c(OC)c(OC)c1 the Potency was inconclusive: 29.1 µM [inhibitor, single point]. For CN1CCN(S(=O)(=O)c2ccc(Sc3nnnn3-c3ccccc3)c([N+](=O)[O-])c2)CC1, the Potency was inconclusive: 35.5 µM [inhibitor, single point]. In the case of CN(C)C(CNc1ccc(S(C)(=O)=O)cc1[N+](=O)[O-])Cc1ccccc1 (stereo unspecified), the Potency is reported as inconclusive: 4.47 µM [inhibitor, full curve, poor fit]. With Cc1cc(C)c2c(=O)cc(C(=O)Nc3sc4c(c3C(=O)NCc3ccco3)CCCC4)oc2c1 the Potency was “inactive”. In the case of Cc1ccc(OC2=NS(=O)(=O)c3ccccc32)cc1, the Potency is reported as inconclusive: 0.164 µM [inhibitor, full curve, poor fit]. In the case of CS(=O)(=O)CC[C@@H](C(=O)NCCc1ccccc1)N1Cc2ccccc2C1=O, the Potency is reported as “inactive”. In the case of O=S1(=O)C[C@@H](N2CCN(c3ccccn3)CC2)[C@H](COCc2ccccc2)N1, the Potency is reported as inconclusive: 0.0022 µM [inhibitor, full curve, poor fit]. In the case of CC1(C)CC(=O)c2cc(C(=O)O)c(=O)n(-c3ccccc3)c2C1, the Potency is reported as inconclusive: 7.3 µM [inhibitor, partial curve, poor fit]. In the case of Cc1ccccc1CSc1nc2c(sc3ccccc32)c(=O)n1CCCC(=O)NCCCOC(C)C, the Potency is reported as “inactive”. For COc1ccccc1OCC(=O)NC1CCCCCCC1, the Potency was “inactive”. For O=C(Nc1cccc2ncccc12)c1cccnc1, the Potency was “inactive”. In the case of CCOc1ccc(-c2nnc(-c3ccccc3)o2)cc1, the Potency is reported as inconclusive: 7.08 µM [inhibitor, partial curve, poor fit]. With CCOC(=O)c1cnc2c(c(C)nn2CC)c1NCCN1CCOCC1 the Potency was “inactive”. With CC[n+]1c(C)sc2c3ccsc3ccc21 the Potency was “inactive”. In the case of C/C(=N\NC(=S)NCc1ccccc1)c1cccc(Br)c1, the Potency is reported as “inactive”. With CC1CCN(c2ccc(NC(=O)Cc3ccccc3)cc2)CC1 the Potency was “inactive”. For COc1ccc(S(=O)(=O)c2c(C(=O)c3ccc(C)c(C)c3)cnc3ccc(C)cc23)cc1, the Potency was inconclusive: 3.55 µM [inhibitor, full curve]. In the case of CCOc1ncccc1C(=O)N1CCN(c2cccc(C)c2C)CC1, the Potency is reported as inconclusive: 11.2 µM [inhibitor, partial curve, poor fit]. For COc1ccc(-c2csc3nc(C)n(-n4cccc4)c(=O)c23)cc1, the Potency was “inactive”. In the case of CCOC(=O)c1sc(-c2ccccn2)nc1C, the Potency is reported as inconclusive: 31.6 µM [activator, single point]. For O=C(CCCCCNC(=O)c1ccccc1)N/N=C/c1ccc(O)cc1O, the Potency was inconclusive: 35.5 µM [activator, single point]. With O=C(Nc1cccc([N+](=O)[O-])c1)NC1CCCCCCC1 the Potency was inconclusive: 35.5 µM [inhibitor, single point]. In the case of CCOc1cc2c(cc1OCC)C(c1ccccc1)N(c1ccccc1)C(=O)C2 (stereo unspecified), the Potency is reported as inconclusive: 7.94 µM [inhibitor, partial curve, poor fit]. With Cc1cccc(NC(=O)CCc2ccc(C)o2)c1 the Potency was “inactive”. With CCN(CC(O)CON=C1c2ccccc2-c2ccccc21)S(=O)(=O)c1ccc(Cl)cc1 (stereo unspecified) the Potency was inconclusive: 11.6 µM [inhibitor, partial curve, poor fit]. For CC(=O)c1ccc(OCc2cc(C(=O)N3CCOCC3)no2)cc1, the Potency was inconclusive: 11.2 µM [activator, partial curve, poor fit]. In the case of CCOc1ccc(/C=N/OCC(=O)Nc2ccc(OCc3ccccc3)cc2)cc1OC, the Potency is reported as inconclusive: 1.26 µM [activator, partial curve, poor fit]. With CN(C)S(=O)(=O)c1cccc(NC(=O)COC(=O)c2cc(-c3cccc(Br)c3)nc3ccccc23)c1 the Potency was inconclusive: 31.6 µM [activator, single point]. In the case of CCOc1ccc(NC(=O)CC2C(=O)N(c3ccccc3)C(=O)N2CCc2sccc2C)cc1 (stereo unspecified), the Potency is reported as “inactive”. For CCOc1nc(-c2ccccc2)ccc1-c1noc(-c2ccc(C)cc2)n1, the Potency was “inactive”. With CN(C)Cc1c(C(=O)N/N=C/C=C/c2ccccc2)nnn1-c1nonc1N the Potency was “inactive”. In the case of Cc1cc(-c2nn(C)c(=O)c3ccccc23)ccc1CNC(=O)NC1CCCCC1, the Potency is reported as “inactive”. With COc1ccc(CCNC(=O)C2(c3ccccc3)CC2)cc1 the Potency was inconclusive: 4.47 µM [inhibitor, full curve, poor fit]. With CCOC(=O)Cc1csc(SCc2cc(=O)oc3cc(O)ccc23)n1 the Potency was inconclusive: 0.447 µM [inhibitor, partial curve, poor fit]. With CC1CCc2c(sc(NS(=O)(=O)c3ccccc3)c2C(=O)OC(C)C)C1 (stereo unspecified) the Potency was “inactive”. For COc1cc(NC(=O)c2cnc(NCc3ccccc3)nc2C)cc(OC)c1OC, the Potency was inconclusive: 3.98 µM [inhibitor, single point]. In the case of Cc1ccc(C)c(S(=O)(=O)NCc2ccc(C(=O)NCc3ccccn3)cc2)c1, the Potency is reported as inconclusive: 3.98 µM [activator, full curve, poor fit]. In the case of Cc1ccc(NC(=O)N2CCC3(CC2)Oc2ccccc2C(=O)N3Cc2ccc(F)cc2)cc1, the Potency is reported as inconclusive: 35.5 µM [inhibitor, single point]. With COc1ccc(S(=O)(=O)N2CCOCC2)cc1NC(=O)c1ccc(Cl)cc1 the Potency was “inactive”. With O=C(NCCc1ccccc1)c1ccc2c(c1)N(Cc1ccc(F)cc1Cl)C(=O)CS2 the Potency was inconclusive: 1.41 µM [inhibitor, partial curve, poor fit]. In the case of COc1ccc(/C=C/c2nc(C#N)c(NCc3ccc(C)cc3)o2)cc1OC, the Potency is reported as inconclusive: 11.2 µM [inhibitor, partial curve, poor fit]. For NNC(=S)NCc1ccc2c(c1)OCO2, the Potency was inconclusive: 16.4 µM [activator, partial curve, poor fit]. In the case of COc1ccc(C=C2SC(=S)NC2=O)cc1, the Potency is reported as inconclusive: 5.62 µM [activator, partial curve, poor fit]. In the case of Cc1c2cnn(CC(=O)NC(C)C)c(=O)c2c(C)n1Cc1cccc(Cl)c1, the Potency is reported as “inactive”. With Cc1cc(C)c(NC(=O)CS(=O)CC(=O)N2CCN(c3ccc(F)cc3)CC2)c(C)c1 (stereo unspecified) the Potency was “inactive”.

From PubChem BioAssay AID540276 (National Center for Advancing Translational Sciences (NCATS), 2011)
% is scaled to controls: 0 for no effect and ±100 for the full control effect; potency is read from the fitted curve at half-maximal effect.
